Data reported in paper doi:10.1101/2020.11.05.370320.
These are yes or no findings as the source states them, for the method shown. In cells and extracts the contact can be indirect. Some results given as binding are weak or reduced against the parent protein; the word gives no strength. Where a sequence is shown, tags or fusion partners need not be part of it.

Amino acid sequences for entries named in this document (tags omitted).
UniProt Q15154: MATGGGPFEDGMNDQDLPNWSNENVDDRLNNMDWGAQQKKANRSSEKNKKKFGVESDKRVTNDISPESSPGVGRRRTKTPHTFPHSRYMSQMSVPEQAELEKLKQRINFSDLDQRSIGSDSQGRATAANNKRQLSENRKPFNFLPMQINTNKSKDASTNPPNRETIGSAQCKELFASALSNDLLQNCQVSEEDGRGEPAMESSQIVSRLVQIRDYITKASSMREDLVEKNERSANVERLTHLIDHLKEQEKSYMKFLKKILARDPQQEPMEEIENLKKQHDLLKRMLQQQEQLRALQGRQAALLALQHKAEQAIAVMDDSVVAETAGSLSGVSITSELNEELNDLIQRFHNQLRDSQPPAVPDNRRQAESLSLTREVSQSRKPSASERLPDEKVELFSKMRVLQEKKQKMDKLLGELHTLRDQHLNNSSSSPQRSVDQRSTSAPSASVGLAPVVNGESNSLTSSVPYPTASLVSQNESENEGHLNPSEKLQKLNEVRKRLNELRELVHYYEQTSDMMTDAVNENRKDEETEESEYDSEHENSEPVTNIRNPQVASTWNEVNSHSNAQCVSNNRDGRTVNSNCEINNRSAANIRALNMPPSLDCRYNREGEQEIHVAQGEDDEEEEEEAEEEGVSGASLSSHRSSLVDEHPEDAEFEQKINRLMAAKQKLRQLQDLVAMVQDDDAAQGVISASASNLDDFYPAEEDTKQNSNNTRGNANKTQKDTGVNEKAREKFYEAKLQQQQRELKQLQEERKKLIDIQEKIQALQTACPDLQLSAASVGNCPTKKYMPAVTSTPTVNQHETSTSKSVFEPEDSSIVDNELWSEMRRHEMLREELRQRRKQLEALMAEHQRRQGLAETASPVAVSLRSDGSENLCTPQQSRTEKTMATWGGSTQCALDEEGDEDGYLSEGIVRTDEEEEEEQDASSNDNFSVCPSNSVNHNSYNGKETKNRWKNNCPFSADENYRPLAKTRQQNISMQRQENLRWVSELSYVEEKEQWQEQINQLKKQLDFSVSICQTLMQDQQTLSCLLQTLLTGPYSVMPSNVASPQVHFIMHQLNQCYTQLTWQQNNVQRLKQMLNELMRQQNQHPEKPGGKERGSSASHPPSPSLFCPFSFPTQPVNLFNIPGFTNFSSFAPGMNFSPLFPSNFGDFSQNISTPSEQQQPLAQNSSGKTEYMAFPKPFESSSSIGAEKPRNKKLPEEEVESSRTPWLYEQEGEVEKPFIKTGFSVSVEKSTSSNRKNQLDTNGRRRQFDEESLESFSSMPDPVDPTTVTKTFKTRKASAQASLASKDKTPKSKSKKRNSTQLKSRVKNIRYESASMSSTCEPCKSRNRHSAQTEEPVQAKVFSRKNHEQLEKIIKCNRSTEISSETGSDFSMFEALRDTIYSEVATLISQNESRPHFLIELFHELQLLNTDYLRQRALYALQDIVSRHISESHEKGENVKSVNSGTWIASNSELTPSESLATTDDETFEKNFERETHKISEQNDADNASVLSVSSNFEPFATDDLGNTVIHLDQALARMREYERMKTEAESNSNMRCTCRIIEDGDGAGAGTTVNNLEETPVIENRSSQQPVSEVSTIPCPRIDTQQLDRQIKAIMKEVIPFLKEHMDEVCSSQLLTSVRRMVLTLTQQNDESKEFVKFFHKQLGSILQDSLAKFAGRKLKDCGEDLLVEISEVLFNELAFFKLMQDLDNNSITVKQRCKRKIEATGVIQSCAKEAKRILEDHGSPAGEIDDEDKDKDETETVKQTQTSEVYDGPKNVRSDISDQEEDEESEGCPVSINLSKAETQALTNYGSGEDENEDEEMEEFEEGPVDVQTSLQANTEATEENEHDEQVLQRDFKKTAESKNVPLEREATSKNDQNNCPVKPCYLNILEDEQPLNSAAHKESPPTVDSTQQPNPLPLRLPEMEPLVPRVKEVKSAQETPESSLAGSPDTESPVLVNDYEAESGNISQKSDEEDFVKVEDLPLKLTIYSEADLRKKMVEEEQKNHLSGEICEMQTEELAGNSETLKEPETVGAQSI

Target: GFP-PCM1 (human) (UniProt Q15154)
Assay: co-IP

B1: Flag-BirA*-AURKA (Aurora kinase A) (enzyme, UniProt O14965 1-403)
chain: MDRSKENCISGPVKATAPVGGPKRVLVTQQFPCQNPLPVNSGQAQRVLCPSNSSQRIPLQAQKLVSSHKPVQNQKQKQLQATSVPHPVSRPLNNTQKSKQPLPSAPENNPEEELASKQKNEESKKRQWALEDFEIGRPLGKGKFGNVYLAREKQSKFILALKVLFKAQLEKAGVEHQLRREVEIQSHLRHPNILRLYGYFHDATRVYLILEYAPLGTVYRELQKLSKFDEQRTATYITELANALSYCHSKRVIHRDIKPENLLLGSAGELKIADFGWSVHAPSSRRTTLCGTLDYLPPEMIEGRMHDEKVDLWSLGVLCYEFLVGKPPFEANTYQETYKRISRVEFTFPDFVTEGARDLISRLLKHNPSQRPMLREVLEHPWITANSSKPSNCQNKESASKQS
- binding: binds
